Source: PubChem BioAssay AID912 (NCATS, 2007).

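Uptake of anthrax lethal toxin into cultured cells, read by FRET (460/530 nm ratio) and reported from the 460 nm channel; the cell line is not named here. Each compound was tested as a concentration series from about 0.0005 to 40 µM. The number is the fitted AC50 of the 460 nm signal alone; lower values mean a more potent effect. A falling signal goes with compounds filed as inhibitors or cytotoxic, a rising one with activators or fluorescent compounds (inferred from the filed classes).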

Values are in µM. Common to all entries: measured here: 460 nm channel. Part of the compounds only, not a random draw; the main read-out is not listed here. A potency from a partial, single-point or poor curve is only a rough figure. The first word of each remark tells which way the curve ran; it can be opposite to the aim of the assay.

| structure | AC50 (µM) | remark |
|---|---|---|
| `CCc1ccc(NC(=O)CSc2nnc(Cn3c(=O)sc4ccccc43)n2C)cc1` | 31.62 | falling, single point |
| `CC(C)C[C@H](NC(=O)[C@@H](O)[C@H](N)Cc1ccccc1)C(=O)O` | 31.62 | falling, single point |
| `COc1ccccc1CNc1cc(-c2ccccc2C(F)(F)F)ncn1` | 0.7943 | rising, full curve, poor fit |
| `CC(C)C(C)(C#N)NC(=O)CSc1nc2scc(-c3ccco3)c2c(=O)n1-c1ccccc1` (stereo unspecified) | 12.59 | falling, single point |
| `O=C(NCc1cc(F)cc2c1OCCO2)[C@H]1C[C@@H]1[C@H](NP(=O)(c1ccccc1)c1ccccc1)c1ccccc1` | 19.95 | rising, single point |
| `O[C@@H](COc1cccc2ccccc12)CN1CCOCC1` | 3.162 | falling, single point |
| `O=C(O)CCC(=O)N1CCN(c2nc3ccccc3s2)CC1` | 15.85 | rising, single point |
| `CCN1CCN(C(c2ccccc2OC)c2nnnn2C2CCCCC2)CC1` (stereo unspecified) | 5.012 | rising, single point |
| `CCOc1ccccc1C(N)=O` | 31.62 | rising, single point |
| `O=C(c1ccncc1)N1CCC[C@@]2(CCN(c3ccncc3)C2)C1` | 31.62 | falling, single point |
| `CCN(CC)S(=O)(=O)c1cccc(-c2nnc(SCc3nnc(-c4cccs4)o3)n2N)c1` | 0.3981 | falling, single point |
| `CC(C)N1CC(C(=O)Nc2nc3ccccc3s2)CC1=O` (stereo unspecified) | 0.3981 | falling, partial curve |
| `Cc1ccc(S(=O)(=O)C(C#N)c2nc3ccccc3nc2N2CCCC2)cc1C` (stereo unspecified) | 10 | rising, partial curve |
| `Cc1ccccc1NC(=O)c1ccccc1O` | 15.85 | falling, single point |
| `COc1ccc(CNC(=O)c2cc(-c3ccccc3O)n[nH]2)cc1` | 2.512 | rising, single point |
| `CN1CCC[C@@H]1CCO[C@](C)(c1ccccc1)c1ccc(Cl)cc1` | 31.62 | falling, single point |
| `O=C(c1cc2nc(-c3ccco3)cc(C(F)(F)F)n2n1)N1CCN(c2ccc(F)cc2)CC1` | 3.981 | falling, single point |
| `CSc1nc2ccccc2n1CC(=O)Nc1ccccc1` | 10 | falling, partial curve |
| `Cc1cc(C)nc(SCc2nnc(SCC(=O)Nc3ncc(C)s3)n2Cc2ccco2)n1` | 31.62 | rising, single point |
| `Cc1ccc2c(CC(=O)Nc3c(C)n(C)n(-c4ccccc4)c3=O)coc2c1` | 0.1 | rising, full curve, poor fit |
| `O=c1sc2ccccc2n1COc1ccccc1` | 3.162 | falling, partial curve |
| `CC(C)=CCC/C(C)=C/COc1c2ccoc2cc2oc(=O)ccc12` | 10 | falling, partial curve |
| `CCCCN1C(=O)C(O)(CC(=O)c2ccco2)c2cc(Br)ccc21` (stereo unspecified) | 12.59 | falling, partial curve, poor fit |
| `CCn1cc(C(=O)NCc2ccco2)c(=O)c2cc(S(=O)(=O)N3CCCCCC3)ccc21` | 3.981 | rising, full curve |
| `CCNS(=O)(=O)c1ccc2nc(NC(=O)c3cccnc3)sc2c1` | 5.012 | rising, single point |
| `COc1ccc(C(=O)n2c(-c3ccco3)nc3ccccc32)cc1` | 7.943 | falling, partial curve |
| `CCNc1ncc2nc(-c3ccc(Cl)cc3)c(=O)n(Cc3ccc(F)cc3)c2n1` | 0.1 | rising, full curve |
| `O=C(c1cccc2c1-c1ccccc1/C2=N/O)N1CCCCC1` | 12.59 | falling, single point |
| `O=C(Nc1nc(-c2cccs2)cs1)c1ccc(S(=O)(=O)N2CCCC2)cc1` | 10 | falling, single point |
| `CC(=O)c1c(C)nn(CC(O)Cn2c3c(c4cc(C)ccc42)CCCC3=O)c1C` (stereo unspecified) | 31.62 | rising, partial curve |
| `Cc1cc(NC(=O)C23CCC(C)(c4nc5cc(Cl)c(Cl)cc5nc42)C3(C)C)no1` (stereo unspecified) | 0.003162 | falling, full curve, poor fit |
| `CCOc1ccccc1C(=O)N1CCN=C1SC` | 25.12 | rising, single point |
| `O=C(Nc1ccc(C(=O)Oc2ccccc2)c(O)c1)c1ccco1` | 31.62 | falling, single point |
| `COc1ccccc1-c1cc(C(=O)Nc2cc(C)nn2-c2ccccc2)no1` | 3.162 | falling, full curve, poor fit |
| `O=c1c(CCc2ccccc2)nc2cnc(Nc3ccccc3)nc2n1Cc1cccs1` | 12.59 | rising, partial curve |
| `Cn1c(=O)c(-c2cccc(Cl)c2)nc2cncnc21` | 12.59 | rising, partial curve |
| `CC(C)Cn1c(N)c(C(=O)NCCN2CCOCC2)c2nc3ccccc3nc21` | 3.162 | rising, full curve |
| `CCOc1ccc(-n2cnnn2)cc1S(=O)(=O)NCCc1ccc(OC)c(OC)c1` | 5.012 | rising, partial curve |
| `O=C(NCC1CCCO1)Nc1cccc(Cl)c1` (stereo unspecified) | 0.01 | falling, full curve, poor fit |
| `CC(=O)c1c(NCCc2ccccc2)cc(C)oc1=O` | 5.012 | rising, partial curve |
| `COc1cccc(Cn2c(=O)c(-c3cn(C)c4ccccc34)nc3cncnc32)c1` | 3.162 | rising, full curve |
| `COc1ccc(C[C@H](C)NC[C@@H](O)c2ccc(O)c(NC=O)c2)cc1` | 31.62 | falling, partial curve |
| `CN(C)c1ncc2nc(-c3cc(F)cc(F)c3)c(=O)n(C3CC3)c2n1` | 10 | rising, partial curve |
| `Cc1nn(C(=O)c2cccs2)c(N)c1-c1ccccc1` | 12.59 | falling, single point |
| `Oc1c(-c2cc(-c3ccco3)[nH]n2)ccc2ccccc12` | 0.0631 | falling, full curve, poor fit |
| `O=c1c(-c2cc(F)cc(F)c2)nc2cnc(N3CCOCC3)nc2n1-c1ccccc1` | 3.162 | rising, full curve |
| `c1cc(OCC2CO2)cc(OCC2CO2)c1` (stereo unspecified) | 1.995 | rising, full curve |
| `CCCCC(=O)Nc1ccc(NC(=O)c2cc(OC)c(OC)c(OC)c2)cn1` | 3.981 | rising, full curve |
| `COc1ccc(-c2nc(-c3cccc(C(F)(F)F)c3)no2)cc1OC` | 12.59 | falling, single point |
| `COc1cc(OC)cc(-c2nc(N)n[nH]2)c1` | 0.3162 | falling, full curve |
| `CCCn1c(=O)c2[nH]c(-c3ccc(OCC(=O)NCCN)cc3)nc2n(CCC)c1=O` | 12.59 | rising, single point |
| `COc1ccc(CCNc2oc(COc3ccccc3F)nc2C#N)cc1OC` | 12.59 | falling, partial curve |
| `Cc1cc(C)n(-c2ccc(C(=O)Nc3ccc4c(c3)OCCO4)cc2)n1` | 7.943 | falling, partial curve |
| `Cc1nnc(Oc2ccccc2)c2ccccc12` | 0.01585 | rising, full curve, poor fit |
| `O=C(CNC(=O)c1cnccn1)Nc1ccc(F)c(F)c1F` | 0.1 | rising, full curve |
| `COc1cc(NC(=O)c2cccs2)ccc1NC(=O)c1ccco1` | 31.62 | falling, partial curve |

6 of the entries, repeated:

With CCOc1ccc(-n2cnnn2)cc1S(=O)(=O)NCCc1ccc(OC)c(OC)c1 the assay gave AC50 5.012 µM (rising, partial curve).
With COc1ccc(-c2nc(-c3cccc(C(F)(F)F)c3)no2)cc1OC the assay gave AC50 12.59 µM (falling, single point).
With CC(=O)c1c(NCCc2ccccc2)cc(C)oc1=O the assay gave AC50 5.012 µM (rising, partial curve).
With COc1ccc(C(=O)n2c(-c3ccco3)nc3ccccc32)cc1 the assay gave AC50 7.943 µM (falling, partial curve).
With CC(C)=CCC/C(C)=C/COc1c2ccoc2cc2oc(=O)ccc12 the assay gave AC50 10 µM (falling, partial curve).
With CC(C)C[C@H](NC(=O)[C@@H](O)[C@H](N)Cc1ccccc1)C(=O)O the assay gave AC50 31.62 µM (falling, single point).